Measured values published in patent US5134067.
The exact form of at least one protein or probe is not confirmed.

Test system: RleAI type II restriction endonuclease (Rhizobium leguminosarum DSM 5629)
Test: enzyme reaction in vitro
Settings: lambda DNA cleaved; 10 mM Tris-HCl pH 7.5, 10 mM MgCl2, 1 mM DTE final, 30 C, 1 h; 1 U cleaves 1 µg lambda DNA in 1 h in 25 µl; purified native protein

CCCACA (double strand) [RleAI recognition sequence CCCACA(N)12/9 in lambda DNA]
activity on this sequence: active
